## Library screen at single concentrations

T. brucei: 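Whole-parasite assay of Trypanosoma brucei over 72 hours; the read-out is not stated. Concentration: 30 µM. Higher reads as stronger inhibition (inferred: compounds with an IC50 in retests scored well above the rest). Values scatter widely below zero; nearly all retest evidence comes from the higher of the two concentrations used. Size under these conditions: about 64,000 compounds, about 940 of them at 50% or above in at least one test.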
Toxoplasma: 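Assay of Toxoplasma gondii numbers, read through their beta-galactosidase reporter with a colour substrate. Compounds at 10 µM. The record gives no direction; the compounds picked for IC50 retests had high values, so higher reads as fewer parasites. Of about 67,000 compounds tested this way, about 260 (0.38%) reached 50% or more in at least one test.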
Leishmania in macrophages: 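Cell assay of Leishmania donovani living inside macrophages; the read-out is not stated. Tested at 30 µM. Direction is inferred from retests: higher values go with stronger inhibition. Of about 69,000 compounds tested this way, about 1,000 (1.5%) reached 50% or more in at least one test.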

Each number is a percent effect as filed. The record does not define 0% and 100%; most values in the screen are far below 50% and negative numbers occur (in some assays of this library far below -100). The compounds are a random part of those screened.

{"structure": "CN(C)CCN1C(=O)CCC12CCCN(C(=O)N(C)C)CC2.O=C(O)C(F)(F)F", "stereo": "centres unmarked", "T. brucei": -4.118, "Toxoplasma": 3.883, "Leishmania in macrophages": -0.1756}
{"structure": "CC(=O)N[C@H]1CCN(c2nc(C)nc3c2c(C)nn3C)C1", "T. brucei": -27.31, "Toxoplasma": 14.86, "Leishmania in macrophages": 15.16}
{"structure": "COc1c(C2CC(=O)Nc3[nH]ncc32)cc2c(c1OC)OCO2", "stereo": "centres unmarked", "T. brucei": -10.49, "Toxoplasma": -1.919, "Leishmania in macrophages": 1.604}
{"structure": "O=C(NCc1cn2c(n1)CN(Cc1cccc(F)c1)CC2)C1CCC1.O=C(O)C(F)(F)F", "T. brucei": -2.787, "Toxoplasma": 7.38, "Leishmania in macrophages": -16.56}
{"structure": "Fc1ccc(-c2nnc(CN3CCn4c(nnc4C4CC4)C3)o2)cc1", "T. brucei": -9.487, "Toxoplasma": -6.232, "Leishmania in macrophages": -14.22}
{"structure": "CCn1cc(CN2CCCN(C(=O)c3c(C)oc(C)c3C)CC2)cn1", "Toxoplasma": -3.865, "Leishmania in macrophages": 13.45}
{"structure": "O=C(O)C(F)(F)F.[H][C@@]12OCCN(Cc3ccc(F)c(F)c3)[C@@]1([H])CC[C@@H]2OC", "T. brucei": -36.53, "Toxoplasma": 49.35, "Leishmania in macrophages": -6.669}
{"structure": "CC(c1ccccc1)N(C)C(=O)CNCCn1cccn1", "stereo": "centres unmarked", "T. brucei": -28.96, "Toxoplasma": 22.2, "Leishmania in macrophages": -1.3}
{"structure": "CCN1CCN(c2ccc(NC(C)c3nc(C(C)C)no3)c(C)c2)CC1", "stereo": "centres unmarked", "T. brucei": -18.74, "Toxoplasma": 7.761, "Leishmania in macrophages": -23.01}
{"structure": "O=c1[nH]c2nc(N3CCOCC3)ncc2c(=O)n1-c1cccc(F)c1", "T. brucei": -20.65, "Toxoplasma": -4.042, "Leishmania in macrophages": 46.93}
{"structure": "Cc1cccc(C(C(=O)N2CC(c3cccnc3)C2)N(C)C)c1", "stereo": "centres unmarked", "T. brucei": -4.619, "Toxoplasma": 4.911, "Leishmania in macrophages": -8.63}
{"structure": "Cc1nc(CNCC2COCc3c(-c4ccoc4)nnn3C2)cs1", "stereo": "centres unmarked", "T. brucei": -17.33, "Toxoplasma": 7.419, "Leishmania in macrophages": 7.162}
{"structure": "Cc1nc(CCCNC(=O)C2CC(=O)N(C3CCCC3)C2)sc1C", "stereo": "centres unmarked", "T. brucei": -70.34, "Toxoplasma": -15.03, "Leishmania in macrophages": 13.54}
{"structure": "COCC1c2nnn(CC3CC3)c2CCN1C(=O)c1sccc1C", "stereo": "centres unmarked", "T. brucei": -21.65, "Toxoplasma": 4.601, "Leishmania in macrophages": 15.87}
{"structure": "CC(C)n1ccnc1CN1CCCN(C(=O)c2nccnc2N)CC1", "T. brucei": -15.58, "Toxoplasma": -10, "Leishmania in macrophages": 27.58}
{"structure": "CN1CC(C(=O)NCCc2ccc(F)c(Br)c2)CC1=O", "stereo": "centres unmarked", "T. brucei": -41.98, "Toxoplasma": -2.753, "Leishmania in macrophages": -17.69}
{"structure": "CCS(=O)(=O)CCn1ccc(NC(=O)CCc2cccc(C)c2)n1", "T. brucei": 42.94, "Toxoplasma": -12.32, "Leishmania in macrophages": 22.38}
{"structure": "CCN(C1CCN(c2cccc(F)c2C(C)=O)CC1)S(C)(=O)=O", "T. brucei": -47.06, "Toxoplasma": -1.371, "Leishmania in macrophages": 22.09}
{"structure": "CC(c1cccc(S(N)(=O)=O)c1)N(C)CCCOc1ccccc1", "stereo": "centres unmarked", "Toxoplasma": 5.977, "Leishmania in macrophages": 14.3}
{"structure": "Cc1cnc(C)c(N2CCN(Cc3ccc(C)c(C)c3)CC2)n1", "T. brucei": 21.2, "Toxoplasma": -4.901, "Leishmania in macrophages": 21.55}

Repeated from the top, 2 entries:

{"structure": "CN(C)CCN1C(=O)CCC12CCCN(C(=O)N(C)C)CC2.O=C(O)C(F)(F)F", "stereo": "centres unmarked", "T. brucei": -4.118, "Toxoplasma": 3.883, "Leishmania in macrophages": -0.1756}
{"structure": "CC(=O)N[C@H]1CCN(c2nc(C)nc3c2c(C)nn3C)C1", "T. brucei": -27.31, "Toxoplasma": 14.86, "Leishmania in macrophages": 15.16}

The values are deposited in ChEMBL (CHEMBL3988442, “University of Dundee, Small-Polar-MMV Screening Library” (2021)).